Reference: PubChem BioAssay AID328 (DTP/NCI, 2004)
The list shows only some results of the screen, not a fair sample: it is rich in T/C values a quarter to a half above the control, in often repeated tests (any T/C) and in doses without a T/C. Further doses and runs are listed elsewhere. T/C gives the treated animals as a percentage of the vehicle group. Some entries give survivors of the animals treated and no T/C: the source files T/C as zero there, which appears to mark a toxic dose or a test without result, not a measured value. Some doses without a T/C left all or most animals alive at the check, yet need not have been tolerated: the source hardly ever lists a survival T/C far under the control, and the zero likely stands for such cases as well. Survivors were counted at the toxicity check, usually on the fifth day, unless a day is given; later deaths do not show. Schedules are NCI's codes, read here as Q, the interval in days (D) or hours (H), X, the number of doses. For survival time, this PubChem deposit counts one and a half times the control or more as active, and values a quarter to a half above the control carry no call in these data; other NCI protocols may use other cut-offs. Some T/C values are followed by the survivors on the day toxicity was checked, most often the fifth; without a count, all were alive then. Some entries hold several experiments; the results are listed from low to high. Marks such as (2×) stand for listed records that agree.

Test system: BDF1 mice, P388 leukemia ip, median survival T/C
Assay: NCI In Vivo Anticancer Drug Screen. Data for tumor model P388 Leukemia (intraperitoneal) in B6D2F1 (BDF1) mice
Settings: T/C endpoint: median survival time, higher T/C = longer survival
In short: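 Read-out is survival of treated animals expressed relative to the vehicle group, as a T/C ratio.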

Question: How did the T/C (dose: 0.75 mg/kg/injection, schedule: Q04DX003 (ip), vehicle: saline with Tween-80) turn out when `CCCCCCCCCCCCCCCC(=O)OCC1OC(n2ccc(N)nc2=O)C(O)C1O` (configuration not stated) was run?
Answer: Its T/C is 136 % of control.

Question: What about the T/C (dose: 1.32 mg/kg/injection, schedule: Q04DX003 (ip), vehicle: saline with Tween-80) of the same molecule?
Answer: The T/C was 127 % of control.

Question: What about the T/C (dose: 6.25 mg/kg/injection, schedule: Q01DX005 (ip), vehicle: Klucel (hydroxypropylcellulose) (HPC), evaluated on day 30) of the same molecule?
Answer: Its T/C is 121, 125 [5 of 6 alive], 134, 144, 158 (3×), 161, 169 (2×), 170, 173, 175, 178, 186, 188, 190, 192, 196, 200, 202, 203, 204, 207, 211, 213, 218, 219, 225, 235, 261 % of control.

Question: And the T/C (dose: 6.25 mg/kg/injection, schedule: Q01DX005 (ip), vehicle: Klucel (hydroxypropylcellulose) (HPC), evaluated on day 35)?
Answer: Its T/C is 155 and 167 % of control.

Question: And the T/C (dose: 6.25 mg/kg/injection, schedule: Q01DX009 (ip), vehicle: Klucel (hydroxypropylcellulose) (HPC), evaluated on day 30)?
Answer: Its T/C is 128, 149, 156, 169, 186, 189, 194, 197 (2×), 199, 200, 201, 204, 205, 206, 207 (3×), 211, 217 (2×), 219, 220, 223, 229 (2×), 235 (2×), 238, 247, 250 (2×), 255, 258, 263 % of control.

Question: What about the T/C (dose: 6.25 mg/kg/injection, schedule: Q01DX009 (ip), vehicle: Klucel (hydroxypropylcellulose) (HPC), evaluated on day 35) of the same molecule?
Answer: Its T/C is 180 % of control.

Question: What about the T/C (dose: 12.5 mg/kg/injection, schedule: Q01DX005 (ip), vehicle: Klucel (hydroxypropylcellulose) (HPC), evaluated on day 30) of the same molecule?
Answer: Its T/C is 141, 146, 158, 171, 177 [2 of 3 alive], 183, 193, 195 [1 of 1 alive], 201 (2×), 204, 206, 207, 210, 223, 224, 227 (2×), 228, 231 (2×), 235, 237 (2×), 239, 241, 246, 255, 262, 266, 275 % of control.

Question: And the T/C (dose: 12.5 mg/kg/injection, schedule: Q01DX005 (ip), vehicle: Klucel (hydroxypropylcellulose) (HPC), evaluated on day 35)?
Answer: The T/C was 189 and 209 % of control.

Question: What about the T/C (dose: 12.5 mg/kg/injection, schedule: Q01DX009 (ip), vehicle: Klucel (hydroxypropylcellulose) (HPC), evaluated on day 30) of the same molecule?
Answer: Its T/C is 171, 178, 181, 193, 197 (2×), 210, 216, 219, 221, 223, 230, 233, 235, 236, 237, 245 (2×), 247, 250, 252, 256, 260 (2×), 263, 266, 267 (2×), 271, 275, 277, 280, 287, 291, 292 % of control.

Question: And the T/C (dose: 12.5 mg/kg/injection, schedule: Q01DX009 (ip), vehicle: Klucel (hydroxypropylcellulose) (HPC), evaluated on day 35)?
Answer: The T/C was 247 % of control [5 of 6 alive].

Question: What about the T/C (dose: 18.75 mg/kg/injection, schedule: Q04DX002 (ip), vehicle: Klucel (hydroxypropylcellulose) (HPC), evaluated on day 30) of the same molecule?
Answer: Its T/C is 126, 150, 157 [5 of 6 alive], 166 (2×), 167, 170, 176, 180, 182, 186, 190, 194, 196, 199, 204, 211 (2×), 216, 219, 224, 225, 226, 228, 236, 241, 247, 267 % of control.

Question: What about the T/C (dose: 18.75 mg/kg/injection, schedule: Q04DX002 (ip), vehicle: Klucel (hydroxypropylcellulose) (HPC), evaluated on day 35) of the same molecule?
Answer: Its T/C is 164 % of control.

Question: What about the survivor count (dose: 18.75 mg/kg/injection, schedule: Q04DX002 (ip), vehicle: Klucel (hydroxypropylcellulose) (HPC)) of the same molecule?
Answer: The survivor count was 3 of 3.

Question: What about the T/C (dose: 18.75 mg/kg/injection, schedule: Q04DX003 (ip), vehicle: Klucel (hydroxypropylcellulose) (HPC), evaluated on day 30) of the same molecule?
Answer: The T/C was 145, 160, 172, 175, 192, 193, 198, 200, 204, 207, 211, 225, 228, 229, 230, 238 (2×), 239, 241, 245, 251, 252, 254, 255, 256, 260, 265, 266, 268, 271, 280 % of control.

Question: And the T/C (dose: 18.75 mg/kg/injection, schedule: Q04DX003 (ip), vehicle: Klucel (hydroxypropylcellulose) (HPC), evaluated on day 35)?
Answer: The T/C was 245 % of control.

Question: What about the T/C (dose: 25.0 mg/kg/injection, schedule: Q01DX005 (ip), vehicle: Klucel (hydroxypropylcellulose) (HPC), evaluated on day 30) of the same molecule?
Answer: Its T/C is 109, 136, 140, 143, 165, 200, 202, 217, 219, 225, 228 [5 of 6 alive], 235, 236, 240 (2×), 243, 245, 250 (2×), 252, 254, 260 (2×), 264 [5 of 6 alive], 266, 271 [2 of 3 alive], 275 (2×), 279, 290 [5 of 6 alive], 294 % of control.

Question: And the T/C (dose: 25.0 mg/kg/injection, schedule: Q01DX005 (ip), vehicle: Klucel (hydroxypropylcellulose) (HPC), evaluated on day 35)?
Answer: The T/C was 222 [2 of 3 alive] and 256 % of control.

Question: What about the T/C (dose: 25.0 mg/kg/injection, schedule: Q01DX009 (ip), vehicle: Klucel (hydroxypropylcellulose) (HPC), evaluated on day 30) of the same molecule?
Answer: Its T/C is 171 [2 of 3 alive], 199, 210, 228, 245, 247 (2×), 251, 256 (2×), 258, 260, 262 (2×), 263 (3×), 267 (2×), 274, 275 (2×), 275 [5 of 6 alive], 277, 280, 282, 283, 285 (2×), 291 (2×), 293, 300, 306 % of control.

Question: And the T/C (dose: 25.0 mg/kg/injection, schedule: Q01DX009 (ip), vehicle: Klucel (hydroxypropylcellulose) (HPC), evaluated on day 35)?
Answer: The T/C was 320 % of control.

Question: What about the survivor count (dose: 25.0 mg/kg/injection, schedule: Q01DX009 (ip), vehicle: Klucel (hydroxypropylcellulose) (HPC)) of the same molecule?
Answer: The survivor count was 1 of 3.

Question: And the T/C (dose: 31.25 mg/kg/injection, schedule: Q01DX001 (ip), vehicle: Klucel (hydroxypropylcellulose) (HPC))?
Answer: The T/C was 165, 180, 204, 208, 219, 234, 236 % of control.

Question: What about the T/C (dose: 31.75 mg/kg/injection, schedule: Q01DX001 (ip), vehicle: Klucel (hydroxypropylcellulose) (HPC)) of the same molecule?
Answer: The T/C was 100, 100 [2 of 3 alive], 105, 106, 111, 158, 163 (2×), 168, 174, 176 (2×), 181, 196, 211, 215, 216, 223, 225, 226, 250, 261 % of control.

Question: And the T/C (dose: 33.0 mg/kg/injection, schedule: Q01DX009 (ip), vehicle: saline with Tween-80)?
Answer: Its T/C is 131 % of control.

Question: What about the T/C (dose: 37.5 mg/kg/injection, schedule: Q04DX002 (ip), vehicle: Klucel (hydroxypropylcellulose) (HPC), evaluated on day 30) of the same molecule?
Answer: Its T/C is 170, 175, 193, 194, 195, 196, 202, 202 [2 of 3 alive], 203, 204, 205, 208, 219, 220, 230, 236, 239, 240, 241, 245, 253, 256, 258 (2×), 265 (2×), 269, 286 % of control.

Question: What about the T/C (dose: 37.5 mg/kg/injection, schedule: Q04DX002 (ip), vehicle: Klucel (hydroxypropylcellulose) (HPC), evaluated on day 35) of the same molecule?
Answer: The T/C was 213 % of control.

Question: What about the survivor count (dose: 37.5 mg/kg/injection, schedule: Q04DX002 (ip), vehicle: Klucel (hydroxypropylcellulose) (HPC)) of the same molecule?
Answer: The survivor count was 3 of 3.

Question: What about the T/C (dose: 37.5 mg/kg/injection, schedule: Q04DX003 (ip), vehicle: Klucel (hydroxypropylcellulose) (HPC), evaluated on day 30) of the same molecule?
Answer: Its T/C is 170, 181, 182, 189, 193, 212, 214 (2×), 216, 225, 235, 237, 243, 245, 253, 255, 256 (2×), 260 (2×), 263, 265, 267, 270, 272, 274, 275, 277, 285 (2×), 297 % of control.

Question: And the T/C (dose: 37.5 mg/kg/injection, schedule: Q04DX003 (ip), vehicle: Klucel (hydroxypropylcellulose) (HPC), evaluated on day 35)?
Answer: Its T/C is 282 % of control.

Question: And the T/C (dose: 40.0 mg/kg/injection, schedule: Q04DX003 (ip), vehicle: saline with Tween-80, evaluated on day 5)?
Answer: The T/C was 198, 225, 306 % of control.

Question: And the T/C (dose: 40.0 mg/kg/injection, schedule: Q04DX003 (ip), vehicle: saline with Tween-80, evaluated on day 60)?
Answer: Its T/C is 198 and 306 % of control.

Question: What about the T/C (dose: 50.0 mg/kg/injection, schedule: Q01DX005 (ip), vehicle: Klucel (hydroxypropylcellulose) (HPC), evaluated on day 30) of the same molecule?
Answer: Its T/C is 87, 94, 125, 126, 132, 140, 161, 169, 182, 225, 230, 235, 236, 243, 244, 250, 251, 258, 264, 270, 272, 274, 275, 277, 280, 282, 283, 285, 296 % of control.

Question: And the T/C (dose: 50.0 mg/kg/injection, schedule: Q01DX005 (ip), vehicle: Klucel (hydroxypropylcellulose) (HPC), evaluated on day 35)?
Answer: The T/C was 247 and 294 % of control.
